The target in this experiment is T1, NMT2 (115–496), NMT catalytic domain (human) (UniProt O60551).
T1 sequence: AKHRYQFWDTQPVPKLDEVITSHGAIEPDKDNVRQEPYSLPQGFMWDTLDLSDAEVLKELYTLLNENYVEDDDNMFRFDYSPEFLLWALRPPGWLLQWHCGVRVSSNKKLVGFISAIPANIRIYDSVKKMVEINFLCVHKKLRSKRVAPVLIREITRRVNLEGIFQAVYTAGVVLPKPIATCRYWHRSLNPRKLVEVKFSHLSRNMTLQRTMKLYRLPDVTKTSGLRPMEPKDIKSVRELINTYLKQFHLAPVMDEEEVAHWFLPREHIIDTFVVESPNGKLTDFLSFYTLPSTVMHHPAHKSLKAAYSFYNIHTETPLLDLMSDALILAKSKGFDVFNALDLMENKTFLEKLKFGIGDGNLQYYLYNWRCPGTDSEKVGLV
Briefly: crystal structure; NMT2 8 mg/ml in 25 mM Tris-HCl pH 7.5, 120 mM NaCl, 1 mM DTT, 1 mM MgCl2, with 0.35 mM myristoyl-CoA and 3.5 mM KVLSKIF; well 22% PEG 8000, 0.1 M Bis Tris pH 6.5; hanging drop; both purified.

These are yes or no findings as the source states them, for the method shown. Some binding calls cover weakened binding; strength is not graded here.

B1: KVLSKIF peptide (ARF6 N-terminus without G2) (peptide)
peptide: KVLSKIF
modifications: myristoyl on the ε-amine of the lysine (Lys3), formed in the crystal (product)
B1: the binding entry is recorded as “binds”.

(Values after PMC7044312, “NMT1 and NMT2 are lysine myristoyltransferases regulating the ARF6 GTPase cycle” (Nature Communications, 2020).)
